Measured values reported in the supplement of paper PMC9744312.
Where a name gives a salt, the structure may show the parent alone. This is one part of the list. This is a noisy data set.

system: Peyronie's disease tunica albuginea primary fibroblasts; assay: cell viability (DRAQ5 nuclear stain) relative to TGF-beta1-only control; higher = more viable cells; conditions: 10 µM; TGF-beta1 10 ng/mL; 72 h

Compound	cell viability
COc1ccc2c(c1)c(CC(=O)OCC(=O)O)c(C)n2C(=O)c1ccc(Cl)cc1 [Acemetacin]	80.1%
CCOCCn1c(N2CCCN(C)CC2)nc2ccccc21 [Emedastine Difumarate]	95.2%
CCOCCn1c(N2CCCN(C)CC2)nc2ccccc21 [Emedastine]	109%
CC1=C(C(=O)O)N2C(=O)[C@@H](NC(=O)[C@H](N)c3ccccc3)[C@H]2SC1 [Cephalexin]	101%
CC[C@H](C)C(=O)O[C@H]1C[C@H](O)C=C2C=C[C@H](C)[C@H](CC[C@@H](O)C[C@@H](O)CC(=O)O)[C@H]21 [Pravastatin sodium]	97.4%
Cc1cccn2c(=O)c(-c3nnn[nH]3)cnc12 [Pemirolast potassium]	84.7%
Nc1ccccc1NC(=O)c1ccc(CNc2nccc(-c3cccnc3)n2)cc1 [Mocetinostat (MGCD0103)]	45.2%
CC(C)(C)NCC(O)COc1cccc2c1CC(O)C(O)C2 (configuration not stated) [Nadolol]	96.2%
CC(C)CCCCC(=O)N[C@@H](CCN)C(=O)N[C@H](C(=O)N[C@@H](CCN)C(=O)N[C@H]1CCNC(=O)[C@H]([C@@H](C)O)NC(=O)[C@H](CCN)NC(=O)[C@H](CCN)NC(=O)[C@H](CC(C)C)NC(=O)[C@@H](Cc2ccccc2)NC(=O)[C@H](CCN)NC1=O)[C@@H](C)O [Polymyxin B sulphate]	106%
CC1=C(C(=O)O)N2C(=O)[C@@H](NC(=O)[C@H](N)c3ccc(O)cc3)[C@H]2SC1 [Cefadroxil hydrate]	96.3%
NC(=O)[C@@H](CCC(F)(F)F)N(Cc1ccc(-c2ncon2)cc1F)S(=O)(=O)c1ccc(Cl)cc1	80%
C=CCN1CCCC1CNC(=O)c1cc2nn[nH]c2cc1OC (configuration not stated) [Alizapride HCl]	99.3%
CC(C)(Oc1ccc(C2CC2(Cl)Cl)cc1)C(=O)O (configuration not stated) [Ciprofibrate]	91.3%
O=C(O)CCc1nc2ccccc2[nH]1 [Procodazole]	91.5%
NC(=O)c1cccnc1 [Nicotinamide (Vitamin B3)]	87.3%
Nc1nccs1 [Aminothiazole]	92.9%
CC(C)C[C@H](N)C(=O)O [L-Leucine]	99%
Cn1c(=O)c2c(ncn2CC(O)CO)n(C)c1=O (configuration not stated) [Dyphylline]	91.7%
CCCc1nc(C(C)(C)O)c(C(=O)OCc2oc(=O)oc2C)n1Cc1ccc(-c2ccccc2-c2nnn[nH]2)cc1 [Olmesartan Medoxomil]	95.3%
CCCCCCCCCCCCCCCC[N+](C)(C)C [Cetrimonium Bromide (CTAB)]	55.7%
S=c1nc[nH]c2nc[nH]c12 [6-Mercaptopurine (6-MP) Monohydrate]	76.4%
CCOC(=O)c1ccc(C#Cc2ccc3c(c2)C(C)(C)CCS3)nc1 [Tazarotene]	101%
CC(C)(C)C#Cc1cc(N(C(=O)[C@H]2CC[C@H](C)CC2)[C@H]2CC[C@H](O)CC2)c(C(=O)O)s1 [Lomibuvir (VX-222, VCH-222)]	85.5%
CCC(C)(C)c1ccc(CC(C)CN2C[C@@H](C)O[C@@H](C)C2)cc1 (some centres not stated) [Amorolfine HCl]	97%

Compound	cell viability
CC[C@]12CCCN3CCc4c(n(c5ccccc45)[C@@](O)(C(=O)OC)C1)[C@@H]32 [Vincamine]	93.5%
NCCNc1ccc(NCCN)c2c1C(=O)c1ccncc1C2=O [Pixantrone Maleate]	42.8%
O=c1[nH]c(=O)n([C@H]2C[C@H](O)[C@@H](CO)O2)cc1/C=C/Br [Brivudine]	87.5%
CCOc1nc2cccc(C(=O)OC(C)OC(=O)OC3CCCCC3)c2n1Cc1ccc(-c2ccccc2-c2nn[nH]n2)cc1 (configuration not stated) [Candesartan Cilexetil]	91.9%
CCN1CCC[C@H]1CNC(=O)c1cc(S(N)(=O)=O)ccc1OC [Levosulpiride]	87.5%
Nc1ccc(S(N)(=O)=O)cc1 [Sulfanilamide]	96.9%
CCCNS(=O)(=O)Nc1ncnc(OCCOc2ncc(Br)cn2)c1-c1ccc(Br)cc1 [Macitentan]	106%
CC1=C(C(=O)OCCN(Cc2ccccc2)c2ccccc2)C(c2cccc([N+](=O)[O-])c2)C(P2(=O)OCC(C)(C)CO2)=C(C)N1 (configuration not stated) [Efonidipine]	96.8%
CN(C)CCN1C(=O)c2cccc3cc(N)cc(c23)C1=O [Amonafide]	49.4%
CCOc1ccc(Cc2cc([C@@H]3O[C@H](CO)[C@@H](O)[C@H](O)[C@H]3O)ccc2Cl)cc1 [Dapagliflozin propanediol monohydrate]	73.8%
CCOc1ccc(Cc2cc([C@@H]3O[C@H](CO)[C@@H](O)[C@H](O)[C@H]3O)ccc2Cl)cc1 [Dapagliflozin]	65.9%
O[C@@H]1CO[C@H]2[C@@H]1OC[C@@H]2O [Isosorbide]	85.4%
Cc1c(O)cccc1C(=O)N[C@@H](CSc1ccccc1)[C@H](O)CN1C[C@H]2CCCC[C@H]2C[C@H]1C(=O)NC(C)(C)C [Nelfinavir Mesylate]	66.9%
CN(C)CCC(c1ccccc1)c1ccccn1 (configuration not stated) [Pheniramine Maleate]	88.5%
Cc1ccc(O)c([C@H](CCN(C(C)C)C(C)C)c2ccccc2)c1 [Tolterodine tartrate]	81.3%
Oc1c(Cl)cc(Cl)cc1Sc1cc(Cl)cc(Cl)c1O [Bithionol]	91.6%
NC[C@H]1CC[C@H](C(=O)O)CC1 [Tranexamic Acid]	89.7%
CCCCOc1ccc(CC(=O)NO)cc1 [Bufexamac]	87%
CC(=O)OC(C)C[N+](C)(C)C (configuration not stated) [Methacholine chloride]	88.2%
Nc1nc(=O)c2c([nH]1)NCC(CNc1ccc(C(=O)N[C@@H](CCC(=O)O)C(=O)O)cc1)N2C=O (some centres not stated) [Leucovorin Calcium Pentahydrate]	97.6%
Nc1nc(=O)c2c([nH]1)NCC(CNc1ccc(C(=O)N[C@@H](CCC(=O)O)C(=O)O)cc1)N2C=O (some centres not stated) [Calcium folinate]	98.2%
O=C(O)c1cc(=O)c2c(OCC(O)COc3cccc4oc(C(=O)O)cc(=O)c34)cccc2o1 [Disodium Cromoglycate]	86.1%
NC(=O)NO [Hydroxyurea]	82.8%

3 entries from above, in markdown.

| Compound | cell viability |
| --- | --- |
| CCOC(=O)c1ccc(C#Cc2ccc3c(c2)C(C)(C)CCS3)nc1 [Tazarotene] | 101% |
| CC(C)(C)C#Cc1cc(N(C(=O)[C@H]2CC[C@H](C)CC2)[C@H]2CC[C@H](O)CC2)c(C(=O)O)s1 [Lomibuvir (VX-222, VCH-222)] | 85.5% |
| CCC(C)(C)c1ccc(CC(C)CN2C[C@@H](C)O[C@@H](C)C2)cc1 (some centres not stated) [Amorolfine HCl] | 97% |
